In article PMC7985234:
These are yes or no findings as the source states them, for the method shown.

Amino acid sequences for entries named in this document (tags omitted). Residues count along the entry.
UniProt P01375, residues 77-233: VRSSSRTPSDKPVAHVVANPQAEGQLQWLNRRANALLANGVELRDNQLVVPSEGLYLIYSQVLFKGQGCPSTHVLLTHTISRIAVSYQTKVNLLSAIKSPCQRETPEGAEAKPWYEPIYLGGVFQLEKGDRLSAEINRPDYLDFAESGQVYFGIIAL
UniProt P02769, residues 25-607: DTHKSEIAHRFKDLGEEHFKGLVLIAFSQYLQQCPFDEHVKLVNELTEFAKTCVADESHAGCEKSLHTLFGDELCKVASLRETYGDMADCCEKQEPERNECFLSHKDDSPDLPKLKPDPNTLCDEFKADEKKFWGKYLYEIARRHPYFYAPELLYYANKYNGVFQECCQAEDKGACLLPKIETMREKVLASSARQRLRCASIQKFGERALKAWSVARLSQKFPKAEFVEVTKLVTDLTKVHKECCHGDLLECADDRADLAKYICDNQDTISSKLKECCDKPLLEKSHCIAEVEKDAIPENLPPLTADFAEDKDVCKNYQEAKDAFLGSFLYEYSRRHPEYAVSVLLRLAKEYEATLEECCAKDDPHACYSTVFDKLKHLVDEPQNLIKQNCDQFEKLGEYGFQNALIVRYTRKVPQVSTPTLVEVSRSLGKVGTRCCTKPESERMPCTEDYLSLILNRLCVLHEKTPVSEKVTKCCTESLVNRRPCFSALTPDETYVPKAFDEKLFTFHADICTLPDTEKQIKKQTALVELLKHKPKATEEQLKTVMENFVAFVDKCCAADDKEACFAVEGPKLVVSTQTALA

Target: Tumor necrosis factor-alpha (TNF-α) antigen (human) (UniProt P01375)
Test: SPR; plasmonic sensor in Kretschmann configuration with lateral position (Goos-Hänchen) shift read-out; BSA flowed over the TNF-alpha sensing surface at 10^5 times the concentration of the anti-TNF antibody, compared with flowing the monoclonal anti-TNF antibody (Fig. S7); both purified

**Q.** Which binding does the source give for “Bovine Serum Albumin (BSA) (from UniProt P02769 25-607)” here?
**A.** Its binding is “no binding (tested: 10^5 times higher than anti-TNF antibody)”.
